Where two headings read alike, the source gives them in different places.
Key:
[1] = microsomes, 1 h
Description: (§1) Cold acetonitrile (ACN) including 100 ng/mL Tolbutamide and 100 ng/mL Labetalol as internal standard (IS) were used for stop solution. 10 μL compound or control working solution/well was added to all plates (T0, T5, T10, T20, T30, T60, NCF60) except matrix blank. Dispense 80 μL/well microsome solution was added to every plate by Apricot, the mixture of microsome solution and compound were incubated at 37° C. for about 10 min. After pre-warming, dispense 10 μL/well NADPH regenerating system was added to every plate by Apricot to start reaction. The solution was then incubated at 37° C. 300 (μL/well) stop solution (cold in 4° C.) was added to terminate the reaction. The sampling plates were shaken for approximately 10 min. Samples were centrifuged at 4000 rpm for 20 min under 4° C. While centrifuging, 8×new 96-well plate were loaded with 300 μL HPLC water, then 100 μL supernatant was transferred and mixed for LC/MS/MS.

in vitro = conditions: microsomes; for Remaining (*NCF = 60 min) / Remaining (T = 60 min): 1 h
Description: as §1

- Remaining (*NCF = 60 min) ([1]; Beagle, dog): 101.6%
- Remaining (*NCF = 60 min) ([1]; human): 103.3%
- Remaining (T = 60 min) ([1]; human): 0.7%
- CLint scaled (in vitro; CD-1, mouse): 1870 mL/min/kg
- Remaining (*NCF = 60 min) (in vitro; CD-1, mouse): 88.0%
- Remaining (T = 60 min) (in vitro; CD-1, mouse): 0.4%
- CLint scaled (in vitro; SD, rat): 1610 mL/min/kg
- Remaining (*NCF = 60 min) (in vitro; SD, rat): 87.1%
- Remaining (T = 60 min) (in vitro; SD, rat): 0.4%
SMILES: CCCNCC(O)COc1ccccc1C(=O)CCc1ccccc1 (stereo not drawn) [Propafenone, propafenone]

From patent US12293809B2, “Workflow for generating compounds with biological activity against a specific biological target” (INSILICO MEDICINE IP LIMITED, priority 2019, dated 2025)
